At least one structure is not confirmed: it was looked up by name or label, or the drawing left a doubt.
Test system: SP-B
Experiment: NAMPT induced inhibition of SP-B in H441 cells pretreated with p38 or JNK inhibitor (western blot)
Assay type: cell-based, human
Conditions: H441 cells pretreated 6 hours, then transfected with pCAGGS-hPBEF or pCAGGS-H247E

Oc1c2ccccc2c2c3c(cccc13)N=N2 [SP600125]
NAMPT induced inhibition of SP-B: significantly attenuated
